# Experimental data taken from the odorant receptor screen of Mainland et al. (2015).
# Several values for one entry are separate records, joined by “and”; a condition that tells them apart may be missing. Equal values may be shown once. This is one part of the list. Single wells; the ratio to wells without odorant was worked out here, and repeats agree poorly.
# How the values were obtained:
# Experiment in all cases: odorant receptor activation (CRE luciferase / Renilla) (fold of no-odor wells); higher = more activation
# Conditions in all cases: 100 µM
# [1] = system: OR5H6 clone 1470
# [2] = system: OR5I1 clone 1146
# [3] = system: OR5J2 clone 1241
# [4] = system: OR5K1 clone 1502
# [5] = system: OR5K2 clone 1068
# [6] = system: OR5K3 clone 1514
# [7] = system: OR5K4 I206V clone 1729
# [8] = system: OR5L1 clone 1204
# [9] = system: OR5L1 clone 1383
# [10] = system: OR5L1 clone 1720
Compound,odorant receptor activation [1],odorant receptor activation [2],odorant receptor activation [3],odorant receptor activation [4],odorant receptor activation [5],odorant receptor activation [6],odorant receptor activation [7],odorant receptor activation [8],odorant receptor activation [9],odorant receptor activation [10]
CCCCCCCC=O [octyl aldehyde],0.803,0.938,0.967,1.13,1.12,1.05,0.831,0.836,0.996,0.857
CCCCCOC(C)=O [n-amyl acetate],0.583 and 0.927,0.529,1.08,0.891 and 0.876,1.42,0.581 and 0.432,0.776,0.638,0.762,1.23
C=CCc1ccc(OC)c(OC)c1 [eugenol methyl ether],1.26,1.49,0.9,1.86,1.32,1.5,0.868,1.48,1.91,1.04
"CC1CCC(C(C)C)C(O)C1 (single isomer, unassigned; (+)) [(+)-menthol]",0.961,1.59,0.786,1.26,5.76,0.923,1.1,1.18,0.769,1.13
C=CCc1ccc(OC(C)=O)c(OC)c1 [eugenol acetate],1.98,2.26,2.15,1.43,1.32,2,1.51,1.43,2.11,1.65
CC12CCC(C1)C(C)(C)C2=O (stereo unspecified) [fenchone],0.801,0.99,0.885,1.22,0.933,1.09,0.866,0.945,1.06,0.729
c1ccc(Oc2ccccc2)cc1 [diphenyl ether],0.961,1.14,0.782,1.2,0.887,1.12,0.424,0.879,1.07,0.517
CC(C)C=O [isobutyraldehyde],0.668 and 1.07,1,0.711,0.925 and 1.07,1.44,0.95 and 0.99,0.99,1.22,0.62,0.675
CC(C)CCC(=O)O [4-methylvaleric acid],1.03,0.998,0.781,1.1,3.35,0.741,0.883,0.827,0.772,1.14
CCCCCCOC(=O)CCC [hexyl butyrate],1.07 and 0.805,0.929,0.843,1.02 and 0.921,0.627,0.779 and 0.755,1,0.897,0.801,0.875
CC=Cc1ccc(O)c(OC)c1 [isoeugenol],0.922 and 2.73,1.19,4.41,1.23 and 1.39,0.643,1.54 and 1.9,6.83,1.76,1.24,3.2
O=C1CCCCCCCCCCCCCCO1 [pentadecalactone],0.838,0.874,0.739,0.779,0.669,0.768,0.956,0.778,1.11,0.757
O=C1CCCCCCCCCCCC(=O)OCCO1 [ethylene brassylate],1.23,1.78,2.03,1.1,1.31,1.51,0.981,1.75,1.96,0.813
CC(=O)OC1CC2CCC1(C)C2(C)C (stereo unspecified) [isobornyl acetate],0.727 and 1.1,1.17,0.804,0.983 and 1.02,0.975,0.984 and 1.17,1.08,0.906,0.789,0.688
CCC1(O)C2(C)CCC(C2)C1(C)C (stereo unspecified) [2-ethylfenchol],1.21,1.22,0.65,1.02,6.42,0.942,0.813,0.824,0.669,0.946
C=C(C)C1CC=C(C)C(=O)C1 (stereo unspecified) [r-carvone],1.02,1.07,0.879,1.08,0.768,1.01,0.972,1.21,1.38,0.772
COc1cc(C)ccc1O [2-methoxy-4-methylphenol],0.872,1.2,0.967,1.15,3.65,0.819,0.992,0.959,0.594,0.91
COc1cc(C=O)ccc1O [vanillin],1.02,0.988,0.944,1.05,0.66,0.849,1.24,1.38,1.15,0.532
CC(=O)OCC=C(C)CCC=C(C)C [geranyl acetate],1.07 and 1.37,0.838,2.28,0.9 and 1.38,2.82,0.987 and 1.34,1.42,1.29,1.19,1.08

Compound,odorant receptor activation [1],odorant receptor activation [2],odorant receptor activation [3],odorant receptor activation [4],odorant receptor activation [5],odorant receptor activation [6],odorant receptor activation [7],odorant receptor activation [8],odorant receptor activation [9],odorant receptor activation [10]
CCCCCCCCOC(C)=O [octyl acetate],0.746,0.886,0.852,1.08,0.985,0.904,0.992,1.07,1.13,0.676
"CC1CCC(C(C)C)C(O)C1 (single isomer, unassigned; (-)) [(-)-menthol]",5,1.16,0.935,1.19,4.52,0.862,1.02,0.936,0.432,0.961
CC(=O)OC(C)(C)C1CC=C(C)CC1 (stereo unspecified) [terpinyl acetate],1.3,1.05,1.03,0.785,1.04,1.1,0.686,1.31,0.91,1.19
CCCC(=O)O [butyric acid],0.951,0.949,1.17,0.892,1.06,1.13,1.3,0.893,0.212,0.746
CC1=CCC(C(C)(C)O)CC1 (stereo unspecified) [terpineol],0.796,1.1,1.07,0.86,0.834,0.795,0.658,1.14,1.04,1.47
CCCCCCCCC=O [nonyl aldehyde],0.893,0.914,1.09,1.12,0.914,1.37,1.26,1.01,1.06,0.815
CCCCCCCC=CC=O [2-decenal],2.34,1.25,0.941,1.43,10.7,1.42,1.03,0.736,1.38,1.72
CCCCO [1-butanol],1.1,0.981,0.685,1.34,5.81,1.01,1.01,0.808,0.635,1.12
CCCCCCCOC(C)=O [heptyl acetate],0.751 and 1.17,0.951,0.837,0.829 and 1.46,1.39,0.81 and 1.2,0.806,0.949,0.922,0.708
CCCCCC(=O)O [caproic acid],0.856,0.91,1.25,0.872,0.977,0.884,1.31,0.936,0.185,0.821
C=C(C)C1CCC2=CC(=O)CC(C)C2(C)C1 (stereo unspecified) [amyl laurate],–,–,1.04,–,–,–,1.29,–,–,0.939
CC1COCc2cc3c(cc21)C(C)(C)C(C)C3(C)C (stereo unspecified) [galaxolide],–,0.849,0.356 and 0.998,0.867 and 1.67,3.75,6.2 and 4.59,–,3.34,4.26,0.906 and 0.496
CCCCCCCCCCC=O [undecanal],1.04,0.965,1.36,1.14,0.847,1,0.991,1.06,1.28,1.45
O=C1CCCCC1 [Cyclohexanone],0.567 and 0.927,0.737,–,0.871 and 1.05,1.09,0.6 and 0.681,–,0.746,0.81,–
CC(C)(C)c1ccc(CCC=O)cc1 [bourgeonal],0.803,0.724,–,0.728,0.74,0.87,–,0.64,0.181,–
C=CC(C)(O)CCC=C(C)C (stereo unspecified) [linalool],0.887,0.824,0.863,1.05,1.09,0.795,0.958,1.19,1.12,0.621
CCCCCCCCCC=O [decyl aldehyde],1.07,1.31,1.09,1.25,1.06,1.34,0.654,1.18,1.44,0.474
CC12C=CCC1C1CCC3=CC(=O)CCC3(C)C1CC2 (stereo unspecified) [androstadienone],0.855 and 1.51,1.07,–,0.973 and 1.61,2.78,0.997 and 1.15,–,1.23,0.817,–
COC(=O)c1ccccc1 [methyl benzoate],0.613 and 1.09,0.754,–,0.829 and 1.24,0.97,0.696 and 0.711,–,1.22,0.758,–

Compound,odorant receptor activation [1],odorant receptor activation [2],odorant receptor activation [3],odorant receptor activation [4],odorant receptor activation [5],odorant receptor activation [6],odorant receptor activation [7],odorant receptor activation [8],odorant receptor activation [9],odorant receptor activation [10]
CC(C)=CCCC(C)=CC=O [citral],0.951,0.969,0.995,1.11,0.902,1.02,1.05,0.986,0.244,0.841
C=C(C)C1CC=CCC1 (stereo unspecified) [r-limonene],1.23 and 0.764 and 1,1.13 and 0.47,1.06,1.17 and 0.79 and 0.934,0.917 and 1.34,0.84 and 0.685 and 0.608,1.68,1.14 and 0.546,1.28 and 0.835,1.19
O=CCc1ccccc1 [phenyl acetaldehyde],1.66,1.28,1.78,0.765,0.92,1.24,3.02,1.35,1.73,1.48
CCCCCCC=O [heptaldehyde],–,–,1.25,0.792 and 0.768 and 1.09,0.908 and 1.19,–,0.898,–,1.01 and 0.944,0.767
CC(C)CC(=O)O [isovaleric acid],0.7,0.936,1.06,0.862,1.1,0.992,1.48,1.29,0.975,0.853
C=CCSCC=C [diallyl sulfide],1.08,1.05,0.964,1.49,0.92,1.24,0.539,0.987,1.05,0.529
C=CCc1ccc(O)c(OC)c1 [eugenol],1.46 and 1 and 1.01,2.77 and 1.66,1.24,1.22 and 1.08 and 1.34,1.17 and 1.37,1.56 and 1 and 1.1,0.63,1.63 and 1.1,1.31 and 1.24,0.8
CC12CCC(CC1)C(C)(C)O2 [cineole],0.767,0.781,0.989,0.902,0.676,0.954,1.71,0.846,0.175,0.721
CC(=O)C(C)=O [diacetyl],1.17,1.24,0.933,1.57,1.1,1.3,0.528,0.787,1.24,0.491
CC1=NC(C)SC1C (stereo unspecified),0.994 and 1.03,0.797,–,1.24 and 1.55,0.723,1.37 and 0.567,–,1.02,0.939,–
CC12C=CCC1C1CCC3CC(=O)CCC3(C)C1CC2 (stereo unspecified) [androstenone],0.928,5.86,–,1.17,4.41,0.846,–,5.04,0.606,–
CC/C=C\CCO [cis-3-hexen-1-ol],0.869,0.975,1.2,1.09,0.851,1.04,1.25,0.973,0.197,1.18
COc1ccccc1O [guaiacol],0.81 and 1.07,1.37,1.14,0.943 and 1.11,1.64,0.847 and 1.09,1.03,1.04,0.86,0.714
CC(C)(O)CCCC1=CCC(C=O)CC1 (stereo unspecified) [lyral],–,–,1.06,–,–,–,0.963,–,–,1.13
COC(=O)c1ccccc1O [methyl salicylate],0.758,0.653,0.885,1.04,0.998,0.877,0.837,1.03,1.04,0.81
c1cnccn1 [pyrazine],0.869,0.944,0.772,0.69,0.813,0.82,0.995,0.878,1.16,0.87
CC(C)C(=O)O [isobutyric acid],0.766 and 1.04,1.18,1.05,0.828 and 1.01,0.633,0.707 and 0.755,1.19,0.867,0.831,0.776
CC(=O)c1ccccc1 [acetophenone],1.28 and 0.743,1.31,–,1.34 and 1.04,0.705,1.13 and 0.532,–,1.18,0.898,–
CCCCCC(C)=O [2-heptanone],0.945 and 0.648,1.21,–,1.04 and 0.733,1.52,1.23 and 0.504,–,1.18,0.772,–

# Two entries picked at random from those above, as already listed:
Compound,odorant receptor activation [1],odorant receptor activation [2],odorant receptor activation [3],odorant receptor activation [4],odorant receptor activation [5],odorant receptor activation [6],odorant receptor activation [7],odorant receptor activation [8],odorant receptor activation [9],odorant receptor activation [10]
CC(C)=CCCC(C)=CC=O [citral],0.951,0.969,0.995,1.11,0.902,1.02,1.05,0.986,0.244,0.841
CC12CCC(C1)C(C)(C)C2=O (stereo unspecified) [fenchone],0.801,0.99,0.885,1.22,0.933,1.09,0.866,0.945,1.06,0.729
